# The campaign covered roughly 340,000 compounds. About 170 (0.05%) were called active. Inconclusive results, whose numbers are uncertain, are shown with a selection of clear calls. The call rests on the fitted dose curve; in most records, active means well fitted inhibition curve with a large enough effect in the signal ratio, with a control signal flat (not every such curve was filed as active); inconclusive means small, poorly fitted or top-dose-only effect, or effect the other way, or a change in a side signal; inactive means flat fitted curve, though single readings scatter; the % refers to the signal ratio. Potencies beside an inconclusive call are fits to weak or partial responses and may not hold up.
# Assay: qHTS Assay to Find Inhibitors of Chronic Active B-Cell Receptor Signaling;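 on activity change, negative = inhibition: plate controls were basal doxycycline-induced cells for no effect and cells given 10 µM MG132 for full effect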
# Conditions: ABC-DLBCL IkBa-CBG/CBR reporter, luminescence ratio (green luciferase fused to IkBa over red control in TMD8 lymphoma cells), 4 h; activity change, negative = inhibition: at 46.1 µM (top of the series) unless noted
# Summary of the method: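 TMD8 ABC-DLBCL cells carrying doxycycline-inducible green luciferase fused to IkappaBalpha plus unfused red luciferase were exposed to compounds (up to 46 uM) for 4 hrs at 37C. Activity came from the overlap-corrected green/red luminescence ratio.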
# Potency means the concentration at half of the fitted maximal effect.
SMILES,Potency,"activity change, negative = inhibition"
O=C(OCc1csc(-c2ccccc2)n1)c1cccs1,"inconclusive: 25.1 µM [falling, partial curve, poor fit]",
N#CCCOC1(C#CCN2CCCC2)CCCCC1,,inactive: -0.436%
CCn1cc(/C=C(\NC(=O)c2ccccc2F)C(=O)NCCCn2ccnc2)c2ccccc21,,inconclusive: -0.445%
Cc1cccc(NC(=O)c2c(-c3ccccc3)noc2C)n1,,inconclusive: 15.5%
CC(C)OC(=O)c1cn(-c2ccccc2)nc1-c1ccco1,,inconclusive: 3.94%
C[C@H](NC(=O)c1nc[nH]c1C(=O)N[C@@H](Cc1ccccc1)C(=O)OC(C)(C)C)C(=O)OCc1ccccc1,,inactive: -0.781%
Cc1cccc(NC(=O)CO/N=C/c2ccc3c(c2)OCO3)c1,,inactive: -10.9%
Cc1ccc(OCCC(=O)OCC(=O)Nc2ccccc2)cc1,,inconclusive: -3.84%
Cn1c(=O)c(=O)n(C)c2cc(S(=O)(=O)CCC(=O)NCc3ccccc3)ccc21,,inconclusive: 4.27%
NC(=O)C1CCN(S(=O)(=O)c2ccccc2[N+](=O)[O-])CC1,,inactive: -1.22%
CCN(CC)CC#CCC(OC)(c1ccccc1)c1ccccc1,,inactive: 0.245%
Cc1[nH]nc(SCC(=O)NCC(C)C)c1[N+](=O)[O-],"inconclusive: 35.5 µM [falling, single point]",
CC1(C)Cc2c(c(N3CCOCC3)nc3sc4c(NCCN5CCOCC5)nnnc4c23)CS1,,inconclusive: 8.92%
O=C(Nc1ccc(N2CCN(C(=O)c3cccs3)CC2)c(Cl)c1)c1cccnc1,,inconclusive: -3.21%
COc1cccc(NC(=O)c2oc3ccccc3c2NC(=O)c2ccc3c(c2)OCO3)c1,,inconclusive: -2.93%
Cc1ccnc(NC(=O)C2CC(=O)N(c3ccc4c(c3)OCCO4)C2)c1 (configuration not stated),,inconclusive: -19%
CCOC(=O)c1cnn(-c2nc(SC)nc3sc4c(c23)CCCC4)c1N,,inconclusive: 11.1%
Cc1cccc(OCCOC(=O)C2CCN(S(=O)(=O)c3ccc(C)c(C)c3)CC2)c1,,inconclusive: 7.19%
COc1ccc(C(=O)COC(=O)CN2C(=O)C3C4CCC(C4)C3C2=O)cc1 (configuration not stated),,inactive: 0.348%
O=C(NCc1ccco1)c1cc(NS(=O)(=O)c2cccc([N+](=O)[O-])c2)ccc1O,,inconclusive: 5.05%
C=C(C)CSc1nc(N)cc(=O)[nH]1,,inconclusive: -0.426%
O=C(Oc1c(-c2ccco2)oc2ccccc2c1=O)c1cccnc1,,inconclusive: -2.67%
O=C(Cn1c(=O)n(CC2CCCO2)c(=O)c2ccccc21)N1CCN(c2ccccc2)CC1 (configuration not stated),,inconclusive: 9.07%
COc1cccc(-c2noc(-c3cccnc3)n2)c1,"inconclusive: 35.5 µM [falling, single point]",
Cc1cccc(C)c1N(CC(=O)N/N=C/c1cc(Br)c(C)o1)S(C)(=O)=O,,inconclusive: 12%
COc1cc(Cl)c(C)cc1NC(=O)c1ccc2c(SCC(=O)O)c3c(nc2c1)CCCC3,,inactive: 5.11%

# Three entries picked at random from the list so far:
SMILES,Potency,"activity change, negative = inhibition"
O=C(NCc1ccco1)c1cc(NS(=O)(=O)c2cccc([N+](=O)[O-])c2)ccc1O,,inconclusive: 5.05%
COc1ccc(C(=O)COC(=O)CN2C(=O)C3C4CCC(C4)C3C2=O)cc1 (configuration not stated),,inactive: 0.348%
Cn1c(=O)c(=O)n(C)c2cc(S(=O)(=O)CCC(=O)NCc3ccccc3)ccc21,,inconclusive: 4.27%

# Remaining list, next part:

SMILES,Potency,"activity change, negative = inhibition"
Cc1cc(Nc2ccc3c(c2)OCCO3)n2nc(C)nc2n1,,inconclusive: 6.53%
COc1ccc(CN=C(C)c2c(C(F)(F)F)[nH]n(-c3nc4ccccc4s3)c2=O)cc1,"inconclusive: 8.2 µM [falling, partial curve, poor fit]",
COc1cccc(-c2nn(-c3ccc(C)cc3)cc2C(=O)N(C)CC(=O)Nc2cccc(F)c2)c1,,inconclusive: -3.08%
Cc1[nH]c2ccccc2c1C(C[N+](=O)[O-])c1ccco1 (configuration not stated),,inconclusive: -12.7%
O=[N+]([O-])c1ccc(Oc2ccc(S(=O)(=O)N3CCOCC3)cn2)cc1,,inconclusive: 13.6%
c1cc(CNC2C3CC4CC(C3)CC2C4)ccn1 (configuration not stated),,inactive: -2.51%
Cn1c(N=NC(=O)c2ccccc2)c(O)c2ccccc21,"inconclusive: 20.6 µM [falling, single point]",
CCCCOC(=O)CNc1nnc(SCC(=O)OCC)[nH]c1=O,"inconclusive: 29.1 µM [falling, single point]",
COc1ccc(N(C)S(=O)(=O)c2cccc(C(=O)Nc3ccc4c(c3)OCCO4)c2)cc1,,inconclusive: -4.97%
Cc1cccc(NC(=O)C2CCN(S(=O)(=O)c3c(C)noc3/C=C/c3ccco3)CC2)n1,,inconclusive: -12.9%
CC(C)c1ccc(C2N3CC4([N+](=O)[O-])CN2CC([N+](=O)[O-])(C3)C4(C)C)cc1 (configuration not stated),,inconclusive: 6.87%
CN1CCc2nc(NC(=O)COc3ccc4ccccc4c3)sc2C1,"inconclusive: 35.5 µM [rising, single point]",
O=C(NC1CCCC1)C(c1ccc(F)cc1)N(Cc1ccc(F)cc1)C(=O)CCl (configuration not stated),,inconclusive: -7.25%
COc1ccc(Cl)cc1NC(=O)Cn1c(=O)n2nc(C)nc2c2ccccc21,"inconclusive: 0.146 µM [falling, full curve, poor fit]",
COc1ccc(C/C(C)=N/NC(=O)c2cccnc2)cc1,"inconclusive: 18.4 µM [falling, single point]",
Fc1cccc(NC(=S)NCc2ccc(Cl)cc2)c1,,inactive: 7.83%
CCN(CC)S(=O)(=O)c1ccc(N/N=C/c2cc(OC)ccc2O)nc1,,inconclusive: 0.247%
O=C1c2ccccc2S(=O)(=O)N1Cc1nc2ccccc2s1,,inconclusive: 14.7%
O=C(O)COc1ccc(=O)n(-c2ccccc2)n1,"inconclusive: 6.51 µM [falling, single point]",
Cc1csc(=O)n1CC(=O)Nc1ccc(Cl)cc1F,,inactive: 4.95%
Cc1ccc(NC(=O)CSc2nnc(-c3cc(C)on3)o2)cc1,,inconclusive: 1.17%
O=C(Nc1nccs1)c1ccc(S(=O)(=O)c2ccccc2)cc1,,inconclusive: 7.93%
CC[C@]12c3[nH]c4ccc(Cl)cc4c3CCN1C(=O)[C@@H](CC(=O)NCCCn1ccnc1)C[C@@H]2C(=O)N1CCN(C(=O)c2ccco2)CC1,,inactive: -1.65%
N#Cc1cc2sc3nc4ccccc4n3c2cc1C#N,,inconclusive: 7.62%
NNC(=O)c1cc2cc(OC(F)(F)F)ccc2[nH]1,,inconclusive: -7.37%
Cc1cccc(NC(=O)C(=O)NCC2CCCN2S(=O)(=O)c2ccccc2)c1 (configuration not stated),"inconclusive: 29.1 µM [falling, single point]",

# Reference: PubChem BioAssay AID493014 (National Center for Advancing Translational Sciences (NCATS), 2011)
